This experiment relates to BDF1 mice, s.c. Lewis lung carcinoma, T/C %. In words: NCI In Vivo Anticancer Drug Screen. Data for tumor model Lewis Lung Carcinoma (subcutaneous) in B6D2F1 (BDF1) mice. Put shortly: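 Readout: survival or tumor size, expressed as treated (T) over vehicle control (C). Transplantable tumor implanted in mice; compound given to the treated group.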
The mark [1] stands for this setting: T/C endpoint: median survival time, dose: 12.5 mg/kg/injection, schedule: Q01DX009 (ip), vehicle: Klucel (hydroxypropylcellulose) (HPC), higher T/C = longer survival.
Where [2] appears, read: T/C endpoint: median survival time, dose: 40.0 mg/kg/injection, schedule: Q01DX001 (ip), vehicle: Klucel (hydroxypropylcellulose) (HPC), higher T/C = longer survival.

The list shows only some results of the screen, not a fair sample: it gathers tests that were run many times, whatever their T/C, doses with no T/C, and many T/C values between a quarter and a half above the control. Further doses and runs are listed elsewhere. T/C gives the treated animals as a percentage of the vehicle group. Some doses have a count of surviving animals in place of a T/C: the source files T/C as zero there, which appears to mark a toxic dose or a test without result, not a measured value. Some doses without a T/C left all or most animals alive at the check, yet need not have been tolerated: the source hardly ever lists a survival T/C far under the control, and the zero likely stands for such cases as well. Survivors were counted at the toxicity check, usually on the fifth day, unless a day is given; later deaths do not show. Schedules are NCI's codes, read here as Q, the interval in days (D) or hours (H), X, the number of doses. Some entries hold several experiments; their values stand side by side, smallest first. Some schedule codes hold Z or #, which are not explained here. Where survival is the endpoint, this PubChem deposit counts one and a half times the control or more as active, and values a quarter to a half above the control carry no call in these data; other NCI protocols may use other cut-offs. Some T/C values carry the count of animals alive at the toxicity check (mostly the fifth day); where none is given, no animal had died by that day.

Take `CCC[C@H]1CCCCN1`: the survivor count is 2 of 6 (T/C endpoint: mean tumor weight, dose: 50.0 mg/kg/injection, schedule: Q01DX011 (ip), vehicle: saline, higher T/C = larger tumour); 0 of 6 (T/C endpoint: mean tumor weight, dose: 100.0 mg/kg/injection, schedule: Q01DX011 (ip), vehicle: saline, higher T/C = larger tumour); 0 of 6 (T/C endpoint: mean tumor weight, dose: 200.0 mg/kg/injection, schedule: Q01DX011 (ip), vehicle: saline, higher T/C = larger tumour).

As to `O=NN(CCCl)C(=O)Nc1ccc(I)cc1`, the survivor count under setting [1] is 10 of 10; the survivor count (T/C endpoint: median survival time, dose: 25.0 mg/kg/injection, schedule: Q01DX009 (ip), vehicle: Klucel (hydroxypropylcellulose) (HPC), higher T/C = longer survival) is 10 of 10; the survivor count (T/C endpoint: median survival time, dose: 100.0 mg/kg/injection, schedule: Q01DX009 (ip), vehicle: Klucel (hydroxypropylcellulose) (HPC), higher T/C = longer survival) was 10 of 10.

With `O=NN(CCF)C(=O)NC1CCCCC1`, the T/C was 143 % of control under setting [2] and 140 % of control (T/C endpoint: median survival time, dose: 40.7 mg/kg/injection, schedule: Q01DX001 (ip), vehicle: other, higher T/C = longer survival). Further, the survivor count by setting is: under setting [2], 10 of 10; (T/C endpoint: median survival time, dose: 80.0 mg/kg/injection, schedule: Q01DX001 (ip), vehicle: Klucel (hydroxypropylcellulose) (HPC), higher T/C = longer survival) 0 of 10, 1 of 10, 4 of 10; (T/C endpoint: median survival time, dose: 81.4 mg/kg/injection, schedule: Q01DX001 (ip), vehicle: other, higher T/C = longer survival) 2 of 10; (T/C endpoint: median survival time, dose: 162.8 mg/kg/injection, schedule: Q01DX001 (ip), vehicle: other, higher T/C = longer survival) 0 of 10.

As to `CC[C@]1(O)C[C@H]2CN(CCc3c([nH]c4ccccc34)[C@@](C(=O)OC)(c3cc4c(cc3OC)N(C=O)[C@H]3[C@@](O)(C(=O)OC)[C@H](OC(C)=O)[C@]5(CC)C=CCN6CC[C@]43[C@@H]65)C2)C1`, the T/C is 131 % of control (T/C endpoint: median survival time, dose: 0.25 mg/kg/injection, schedule: Q01DX009 (ip), vehicle: saline, higher T/C = longer survival) and 136 % of control (T/C endpoint: median survival time, dose: 250.0 micrograms/kg/injection, schedule: Q01DX009 (ip), vehicle: saline, higher T/C = longer survival). Besides, the survivor count (T/C endpoint: median survival time, dose: 0.5 mg/kg/injection, schedule: Q01DX009 (ip), vehicle: saline, higher T/C = longer survival) is 10 of 10; the survivor count (T/C endpoint: median survival time, dose: 1.0 mg/kg/injection, schedule: Q01DX009 (ip), vehicle: saline, higher T/C = longer survival) was 7 of 10 and 10 of 10; the survivor count (T/C endpoint: median survival time, dose: 500.0 micrograms/kg/injection, schedule: Q01DX009 (ip), vehicle: saline, higher T/C = longer survival) is listed as 10 of 10; the survivor count (T/C endpoint: median survival time, dose: 1000.0 micrograms/kg/injection, schedule: Q01DX009 (ip), vehicle: saline, higher T/C = longer survival) is 10 of 10; the survivor count (T/C endpoint: median tumor weight (est.), dose: 1000.0 micrograms/kg/injection, schedule: Q01DX009 (ip), vehicle: saline, higher T/C = larger tumour) is listed as 1 of 10.

As to `CO[C@H]1/C=C/O[C@@]2(C)Oc3c(C)c(O)c4c(O)c(c(/C=N/N5C(C)CN(Cc6ccccc6)CC5C)c(O)c4c3C2=O)NC(=O)/C(C)=C\C=C\[C@H](C)[C@H](O)[C@@H](C)[C@@H](O)[C@@H](C)[C@H](OC(C)=O)[C@@H]1C` (some centres not stated), the survivor count is on record as 8 of 10 (T/C endpoint: median survival time, dose: 0.4 mg/kg/injection, schedule: Q02DX Z (oral), vehicle: Klucel (hydroxypropylcellulose) (HPC), higher T/C = longer survival); 10 of 10 (T/C endpoint: median survival time, dose: 0.8 mg/kg/injection, schedule: Q02DX Z (oral), vehicle: Klucel (hydroxypropylcellulose) (HPC), higher T/C = longer survival); 8 of 10 (T/C endpoint: median survival time, dose: 6.25 mg/kg/injection, schedule: Q02DX Z (oral), vehicle: Klucel (hydroxypropylcellulose) (HPC), higher T/C = longer survival); 10 of 10 (T/C endpoint: median survival time, dose: 400.0 mg/kg/injection, schedule: Q01DX009 (ip), vehicle: saline with Tween-80, higher T/C = longer survival). Further, under “T/C endpoint: median survival time, dose: 50.0 mg/kg/injection, schedule: Q01DX009 (ip), vehicle: saline with Tween-80, higher T/C = longer survival”, the T/C is 125 % of control.

In the case of `Cc1ccc(NC(=O)N(CCCl)N=O)cc1NC(=O)N(CCCl)N=O`, the survivor count (T/C endpoint: median survival time, dose: 12.5 mg/kg/injection, schedule: Q01DX009 (ip), vehicle: other, higher T/C = longer survival) was 10 of 10 and the survivor count (T/C endpoint: median survival time, dose: 25.0 mg/kg/injection, schedule: Q01DX009 (ip), vehicle: other, higher T/C = longer survival) is on record as 10 of 10.

Regarding `COC(COC(N)=O)C1=C(N2CC2)C(=O)C(C)=C(N2CC2)C1=O` (configuration not stated), the survivor count is listed as 10 of 10 (T/C endpoint: median survival time, dose: 0.06 mg/kg/injection, schedule: Q01DX009 (ip), vehicle: Klucel (hydroxypropylcellulose) (HPC), higher T/C = longer survival) and 10 of 10 (T/C endpoint: median survival time, dose: 2.0 mg/kg/injection, schedule: Q01DX009 (ip), vehicle: Klucel (hydroxypropylcellulose) (HPC), higher T/C = longer survival).

On to `O=CN(O)CC(=O)O`, for which the T/C (T/C endpoint: median survival time, dose: 1500.0 mg/kg/injection, schedule: Q01DX001 (ip), vehicle: saline, higher T/C = longer survival) was 131 % of control.

In the case of `C=C1C(=O)OC2C1CCC(C)C1CCC(=O)OC12C` (configuration not stated), the survivor count is 10 of 10 (T/C endpoint: median survival time, dose: 6.25 mg/kg/injection, schedule: Q01DX009 (ip), vehicle: Klucel (hydroxypropylcellulose) (HPC), higher T/C = longer survival) and 10 of 10 under setting [1].

Regarding `Cc1ccc(S(=O)(=O)[O][Pb]([CH3])([CH3])[CH3])cc1`, the T/C was 141 % of control (T/C endpoint: median survival time, dose: 0.37 mg/kg/injection, schedule: Q01DX009 (ip), vehicle: saline, higher T/C = longer survival) and 129 % of control (T/C endpoint: median survival time, dose: 0.75 mg/kg/injection, schedule: Q01DX009 (ip), vehicle: saline, higher T/C = longer survival).

`Cc1cc(CCl)c(C)c(Br)c1C`: under “T/C endpoint: median survival time, dose: 0.75 mg/kg/injection, schedule: Q01DX009 (ip), vehicle: Klucel (hydroxypropylcellulose) (HPC), higher T/C = longer survival”, the T/C is 126 % of control.

Regarding `CN(C)c1ccc(/C=C\c2ccnc3ccccc23)cc1`, the survivor count is, setting by setting: (T/C endpoint: mean tumor weight, dose: 40.0 mg/kg/injection, schedule: Q01DX011 (ip), vehicle: other, higher T/C = larger tumour) 1 of 6; (T/C endpoint: mean tumor weight, dose: 80.0 mg/kg/injection, schedule: Q01DX011 (ip), vehicle: other, higher T/C = larger tumour) 0 of 6; (T/C endpoint: mean tumor weight, dose: 150.0 mg/kg/injection, schedule: Q01DX011 (ip), vehicle: other, higher T/C = larger tumour) 0 of 6; (T/C endpoint: mean tumor weight, dose: 222.0 mg/kg/injection, schedule: Q01DX011 (ip), vehicle: other, higher T/C = larger tumour) 0 of 6; (T/C endpoint: mean tumor weight, dose: 333.0 mg/kg/injection, schedule: Q01DX011 (ip), vehicle: other, higher T/C = larger tumour) 0 of 6; (T/C endpoint: mean tumor weight, dose: 500.0 mg/kg/injection, schedule: Q01DX011 (ip), vehicle: other, higher T/C = larger tumour) 0 of 6.

On to `O=NN(CCCl)C(=O)NC1CSCSC1`, for which the T/C (T/C endpoint: median survival time, dose: 7.0 mg/kg/injection, schedule: Q04DX004 (ip), vehicle: saline with Tween-80, higher T/C = longer survival) is 137 % of control [8 of 9 alive]; the T/C (T/C endpoint: median survival time, dose: 10.0 mg/kg/injection, schedule: Q01DX001 (ip), vehicle: saline with Tween-80, higher T/C = longer survival) was 125 % of control; the T/C (T/C endpoint: median survival time, dose: 15.0 mg/kg/injection, schedule: Q01DX001 (ip), vehicle: saline with Tween-80, higher T/C = longer survival) is 140 % of control. In addition, the survivor count (T/C endpoint: median survival time, dose: 25.0 mg/kg/injection, schedule: Q01DX009 (ip), vehicle: saline with Tween-80, higher T/C = longer survival) is listed as 10 of 10 and the survivor count (T/C endpoint: median tumor weight (est.), dose: 22.0 mg/kg/injection, schedule: Q01DX001 (ip), vehicle: saline with Tween-80, higher T/C = larger tumour) is 4 of 10 on day 18.

Regarding `NC(CSC(c1ccccc1)(c1ccccc1)c1ccccc1)C(=O)O` (configuration not stated), the survivor count runs as follows: (T/C endpoint: mean tumor weight, dose: 25.0 mg/kg/injection, schedule: Q01DX011 (ip), vehicle: methylcellulose (MC), higher T/C = larger tumour) 2 of 4; (T/C endpoint: median survival time, dose: 16.0 mg/kg/injection, schedule: Q01DX009 (ip), vehicle: Klucel (hydroxypropylcellulose) (HPC), higher T/C = longer survival) 10 of 10; (T/C endpoint: median survival time, dose: 64.0 mg/kg/injection, schedule: Q01DX009 (ip), vehicle: Klucel (hydroxypropylcellulose) (HPC), higher T/C = longer survival) 10 of 10; (T/C endpoint: median survival time, dose: 128.0 mg/kg/injection, schedule: Q01DX009 (ip), vehicle: Klucel (hydroxypropylcellulose) (HPC), higher T/C = longer survival) 10 of 10.

As to `Cc1nc(N)nc(N)c1-c1ccc(Cl)c(Cl)c1`, the survivor count is, setting by setting: (T/C endpoint: mean tumor weight, dose: 3.0 mg/kg/injection, schedule: Q01DX011 (ip), vehicle: other, higher T/C = larger tumour) 3 of 6; (T/C endpoint: mean tumor weight, dose: 9.0 mg/kg/injection, schedule: Q01DX011 (ip), vehicle: other, higher T/C = larger tumour) 2 of 6; (T/C endpoint: median survival time, dose: 4.0 mg/kg/injection, schedule: Q02DX009 (ip), vehicle: Klucel (hydroxypropylcellulose) (HPC), higher T/C = longer survival) 10 of 10; (T/C endpoint: median survival time, dose: 6.25 mg/kg/injection, schedule: Q01DX009 (ip), vehicle: saline, higher T/C = longer survival) 10 of 10; (T/C endpoint: median survival time, dose: 8.0 mg/kg/injection, schedule: Q02DX009 (ip), vehicle: Klucel (hydroxypropylcellulose) (HPC), higher T/C = longer survival) 10 of 10; (T/C endpoint: median survival time, dose: 12.5 mg/kg/injection, schedule: Q01DX009 (ip), vehicle: saline, higher T/C = longer survival) 10 of 10. The survivor count is recorded as 10 of 10 (T/C endpoint: median survival time, dose: 16.0 mg/kg/injection, schedule: Q02DX009 (ip), vehicle: Klucel (hydroxypropylcellulose) (HPC), higher T/C = longer survival) and 10 of 10 (T/C endpoint: median survival time, dose: 25.0 mg/kg/injection, schedule: Q01DX009 (ip), vehicle: saline, higher T/C = longer survival).

Source of the values: PubChem BioAssay AID270 (DTP/NCI, 2004).
